Data reported in the supplement of paper PMC10849652.
The other results are listed elsewhere or left out.

Protein sequences, listed by entry. Tags and fused reporters are not part of them. Lines headed by an entry give the natural chain unless they say otherwise; changes in a name come on top.
UniProt O75380, whole entry, looked up: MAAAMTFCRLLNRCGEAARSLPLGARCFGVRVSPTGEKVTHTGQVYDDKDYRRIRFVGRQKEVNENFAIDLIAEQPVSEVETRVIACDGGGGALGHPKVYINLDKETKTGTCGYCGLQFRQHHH
UniProt Q09161: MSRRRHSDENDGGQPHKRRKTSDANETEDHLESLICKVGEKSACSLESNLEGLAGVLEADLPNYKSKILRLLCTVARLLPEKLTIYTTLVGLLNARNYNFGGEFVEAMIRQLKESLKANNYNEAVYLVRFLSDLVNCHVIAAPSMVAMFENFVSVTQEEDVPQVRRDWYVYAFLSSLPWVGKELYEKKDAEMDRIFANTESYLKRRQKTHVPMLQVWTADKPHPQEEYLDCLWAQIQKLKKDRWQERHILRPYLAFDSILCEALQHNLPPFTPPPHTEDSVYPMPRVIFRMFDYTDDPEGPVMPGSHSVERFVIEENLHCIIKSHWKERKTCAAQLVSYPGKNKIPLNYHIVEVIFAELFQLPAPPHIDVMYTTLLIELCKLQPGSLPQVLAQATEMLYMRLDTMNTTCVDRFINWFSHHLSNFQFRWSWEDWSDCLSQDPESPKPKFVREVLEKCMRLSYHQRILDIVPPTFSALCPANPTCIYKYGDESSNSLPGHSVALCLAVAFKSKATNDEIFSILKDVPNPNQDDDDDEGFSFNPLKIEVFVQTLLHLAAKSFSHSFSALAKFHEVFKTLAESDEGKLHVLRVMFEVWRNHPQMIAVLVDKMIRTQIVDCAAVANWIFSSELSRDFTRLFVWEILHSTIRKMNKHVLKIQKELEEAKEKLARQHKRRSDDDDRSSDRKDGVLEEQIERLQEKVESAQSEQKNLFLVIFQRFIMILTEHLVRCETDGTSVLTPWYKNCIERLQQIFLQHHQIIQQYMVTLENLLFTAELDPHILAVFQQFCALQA
UniProt Q6P582, whole entry, looked up: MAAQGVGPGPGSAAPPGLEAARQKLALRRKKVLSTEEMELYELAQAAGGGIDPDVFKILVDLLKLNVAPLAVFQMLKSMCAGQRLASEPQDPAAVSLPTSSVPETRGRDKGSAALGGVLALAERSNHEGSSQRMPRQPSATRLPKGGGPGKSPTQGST
UniProt Q8NCW5: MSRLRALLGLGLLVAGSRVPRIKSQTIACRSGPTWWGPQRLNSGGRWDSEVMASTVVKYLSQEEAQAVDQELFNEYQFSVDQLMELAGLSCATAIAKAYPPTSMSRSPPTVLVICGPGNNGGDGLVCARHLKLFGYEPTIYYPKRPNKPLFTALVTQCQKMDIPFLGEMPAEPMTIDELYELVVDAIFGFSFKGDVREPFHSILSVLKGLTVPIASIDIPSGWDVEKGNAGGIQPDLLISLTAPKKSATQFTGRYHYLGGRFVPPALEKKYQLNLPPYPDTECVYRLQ
UniProt Q4G0N4: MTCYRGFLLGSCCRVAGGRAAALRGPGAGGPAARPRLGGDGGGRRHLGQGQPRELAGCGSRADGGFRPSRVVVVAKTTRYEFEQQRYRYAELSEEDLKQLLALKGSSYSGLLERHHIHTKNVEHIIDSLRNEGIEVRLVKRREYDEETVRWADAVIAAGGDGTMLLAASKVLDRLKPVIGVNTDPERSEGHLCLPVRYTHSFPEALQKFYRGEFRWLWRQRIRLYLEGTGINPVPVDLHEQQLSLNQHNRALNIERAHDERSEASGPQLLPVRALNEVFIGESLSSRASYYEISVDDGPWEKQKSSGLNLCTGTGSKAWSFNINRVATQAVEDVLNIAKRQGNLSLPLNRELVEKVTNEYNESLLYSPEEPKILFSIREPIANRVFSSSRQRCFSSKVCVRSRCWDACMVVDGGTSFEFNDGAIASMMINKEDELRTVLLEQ
UniProt P19404, whole entry, looked up: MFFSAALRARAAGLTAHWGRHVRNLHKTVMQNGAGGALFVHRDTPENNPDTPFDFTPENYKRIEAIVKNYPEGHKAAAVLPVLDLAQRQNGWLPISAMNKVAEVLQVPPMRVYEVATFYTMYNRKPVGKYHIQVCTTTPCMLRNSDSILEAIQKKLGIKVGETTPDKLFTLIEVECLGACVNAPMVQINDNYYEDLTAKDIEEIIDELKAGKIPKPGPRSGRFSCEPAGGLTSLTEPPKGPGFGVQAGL
UniProt P28331, whole entry, looked up: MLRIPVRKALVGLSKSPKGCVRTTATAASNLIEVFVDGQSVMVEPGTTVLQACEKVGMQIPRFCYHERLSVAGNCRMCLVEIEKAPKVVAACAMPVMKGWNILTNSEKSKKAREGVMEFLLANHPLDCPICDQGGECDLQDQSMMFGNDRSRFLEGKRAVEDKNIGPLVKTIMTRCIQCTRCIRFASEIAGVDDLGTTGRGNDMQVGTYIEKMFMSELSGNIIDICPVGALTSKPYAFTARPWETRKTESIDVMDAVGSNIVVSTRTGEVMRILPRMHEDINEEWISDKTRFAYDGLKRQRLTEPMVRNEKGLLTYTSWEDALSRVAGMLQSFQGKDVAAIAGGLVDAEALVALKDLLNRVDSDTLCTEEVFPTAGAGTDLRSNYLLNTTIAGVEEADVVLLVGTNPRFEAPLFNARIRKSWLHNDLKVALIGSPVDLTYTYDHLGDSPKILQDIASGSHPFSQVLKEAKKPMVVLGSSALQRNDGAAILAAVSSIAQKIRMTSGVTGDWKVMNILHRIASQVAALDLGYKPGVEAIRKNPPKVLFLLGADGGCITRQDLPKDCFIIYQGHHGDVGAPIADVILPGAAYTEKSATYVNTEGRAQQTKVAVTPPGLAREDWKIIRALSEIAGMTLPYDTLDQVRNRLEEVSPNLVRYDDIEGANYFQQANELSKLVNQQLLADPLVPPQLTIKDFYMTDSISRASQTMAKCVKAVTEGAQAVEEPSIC
UniProt O75489, whole entry, looked up: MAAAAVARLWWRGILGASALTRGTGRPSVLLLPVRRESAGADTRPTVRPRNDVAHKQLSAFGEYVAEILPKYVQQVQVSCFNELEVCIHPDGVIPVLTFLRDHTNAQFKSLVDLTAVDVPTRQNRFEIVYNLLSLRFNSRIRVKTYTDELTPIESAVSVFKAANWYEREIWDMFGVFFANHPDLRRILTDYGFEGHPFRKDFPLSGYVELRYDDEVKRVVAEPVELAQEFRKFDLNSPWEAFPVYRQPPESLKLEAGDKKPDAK
UniProt P56181: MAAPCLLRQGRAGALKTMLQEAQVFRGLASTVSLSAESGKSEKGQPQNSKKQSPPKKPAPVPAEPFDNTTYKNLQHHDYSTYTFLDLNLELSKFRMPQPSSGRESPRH
UniProt Q9Y6M9, whole entry, looked up: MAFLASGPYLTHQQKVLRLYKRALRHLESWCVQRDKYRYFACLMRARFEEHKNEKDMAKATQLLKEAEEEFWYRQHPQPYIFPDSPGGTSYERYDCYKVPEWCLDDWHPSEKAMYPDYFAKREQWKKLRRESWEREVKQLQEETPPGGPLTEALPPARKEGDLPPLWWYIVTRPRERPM
UniProt Q8NC96: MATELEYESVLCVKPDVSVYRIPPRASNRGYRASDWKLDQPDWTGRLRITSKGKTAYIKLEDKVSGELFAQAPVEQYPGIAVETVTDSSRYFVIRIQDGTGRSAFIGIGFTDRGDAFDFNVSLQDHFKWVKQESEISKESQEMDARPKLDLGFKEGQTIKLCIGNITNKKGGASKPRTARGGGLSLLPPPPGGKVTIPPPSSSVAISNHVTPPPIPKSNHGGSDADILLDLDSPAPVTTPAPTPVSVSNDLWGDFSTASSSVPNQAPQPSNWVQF
UniProt P54920: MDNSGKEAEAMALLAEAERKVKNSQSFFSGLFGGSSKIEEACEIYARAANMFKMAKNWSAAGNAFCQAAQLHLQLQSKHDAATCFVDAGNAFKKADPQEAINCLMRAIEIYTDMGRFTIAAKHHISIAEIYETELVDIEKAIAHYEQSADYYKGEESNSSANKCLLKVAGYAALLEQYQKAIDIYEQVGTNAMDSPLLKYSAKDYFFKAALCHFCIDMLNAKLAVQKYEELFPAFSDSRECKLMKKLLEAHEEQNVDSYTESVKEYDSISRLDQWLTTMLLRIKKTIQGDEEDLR
UniProt P61599, whole entry, looked up: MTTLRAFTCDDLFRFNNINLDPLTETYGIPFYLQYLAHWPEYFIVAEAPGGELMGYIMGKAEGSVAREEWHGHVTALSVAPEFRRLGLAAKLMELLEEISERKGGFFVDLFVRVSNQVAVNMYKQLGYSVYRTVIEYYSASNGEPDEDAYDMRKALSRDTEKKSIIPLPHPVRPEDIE
UniProt Q8NHV4, whole entry, looked up: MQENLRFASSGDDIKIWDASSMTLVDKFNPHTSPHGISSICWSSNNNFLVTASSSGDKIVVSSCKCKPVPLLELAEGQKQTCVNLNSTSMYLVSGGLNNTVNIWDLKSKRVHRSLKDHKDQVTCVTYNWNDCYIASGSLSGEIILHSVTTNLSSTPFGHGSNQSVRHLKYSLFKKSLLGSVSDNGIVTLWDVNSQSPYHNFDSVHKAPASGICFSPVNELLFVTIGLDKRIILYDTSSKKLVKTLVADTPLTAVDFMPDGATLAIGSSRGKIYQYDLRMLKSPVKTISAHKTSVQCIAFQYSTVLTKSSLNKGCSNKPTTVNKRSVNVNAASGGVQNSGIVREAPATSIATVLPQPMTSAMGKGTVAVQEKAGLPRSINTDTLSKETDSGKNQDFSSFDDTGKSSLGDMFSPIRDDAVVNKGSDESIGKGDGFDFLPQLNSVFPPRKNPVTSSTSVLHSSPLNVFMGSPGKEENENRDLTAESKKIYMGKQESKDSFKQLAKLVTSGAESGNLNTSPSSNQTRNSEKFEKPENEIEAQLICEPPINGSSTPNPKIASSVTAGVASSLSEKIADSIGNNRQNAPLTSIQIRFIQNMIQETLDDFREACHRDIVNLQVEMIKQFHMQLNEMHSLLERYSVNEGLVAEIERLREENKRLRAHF
UniProt Q9UHQ1: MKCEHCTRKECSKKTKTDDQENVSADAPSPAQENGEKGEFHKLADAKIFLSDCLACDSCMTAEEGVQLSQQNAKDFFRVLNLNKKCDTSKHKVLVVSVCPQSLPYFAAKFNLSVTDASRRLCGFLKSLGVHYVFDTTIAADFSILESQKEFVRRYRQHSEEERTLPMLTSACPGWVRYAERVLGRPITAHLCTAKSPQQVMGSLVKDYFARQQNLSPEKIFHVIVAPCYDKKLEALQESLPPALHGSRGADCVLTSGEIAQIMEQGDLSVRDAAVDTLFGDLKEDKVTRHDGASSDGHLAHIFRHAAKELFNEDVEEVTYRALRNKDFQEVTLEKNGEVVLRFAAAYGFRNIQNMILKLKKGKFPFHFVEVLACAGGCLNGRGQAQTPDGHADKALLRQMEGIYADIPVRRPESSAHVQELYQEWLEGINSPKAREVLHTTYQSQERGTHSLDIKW
UniProt Q969V3: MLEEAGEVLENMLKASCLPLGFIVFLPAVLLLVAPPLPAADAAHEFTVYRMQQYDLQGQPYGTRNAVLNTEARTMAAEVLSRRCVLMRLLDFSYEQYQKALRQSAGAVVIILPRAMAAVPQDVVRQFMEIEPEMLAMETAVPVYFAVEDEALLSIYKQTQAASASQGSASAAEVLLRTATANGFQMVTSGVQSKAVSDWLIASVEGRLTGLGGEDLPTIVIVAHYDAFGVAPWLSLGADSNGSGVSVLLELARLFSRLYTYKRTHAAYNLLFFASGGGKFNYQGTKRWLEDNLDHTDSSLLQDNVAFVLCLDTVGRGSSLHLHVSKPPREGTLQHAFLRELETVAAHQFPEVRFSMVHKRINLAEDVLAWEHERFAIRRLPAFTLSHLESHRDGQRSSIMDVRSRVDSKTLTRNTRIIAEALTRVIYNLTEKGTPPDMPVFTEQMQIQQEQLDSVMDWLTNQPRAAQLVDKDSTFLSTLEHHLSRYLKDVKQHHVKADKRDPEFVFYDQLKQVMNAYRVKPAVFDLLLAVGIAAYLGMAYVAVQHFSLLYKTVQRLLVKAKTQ

Columns and labels:
Experiment in all cases: log2 fold change, soluble protein after heating vs DMSO (PISA); higher = thermal stabilisation; K562 cells, 10 uM, 30 min; active = over 0.2 and 3.5 SD of the protein, either way, in both replicates (recomputed)
[1] = compound: CC1=C(C=C(C=C1)NC(=O)C2=CC(=CC=C2)C(C)(C)C#N)NC3=CC4=C(C=C3)N=CN(C4=O)C
In short: (§1)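 K562 cells (2×10^6 cells/mL) were treated with 10 μM compound for 30 min, and aliquots were heated for 3 min over 48°C-58°C. Pooled aliquots were extracted in PBS with 0.5% NP-40 at 4°C, and the supernatant after 21,000xg for 90 min was measured by TMTpro 16plex LC-MS/MS with channel sums equalised. Reported thermal stability, relative to control samples and from duplicates, is a log2 fold change.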

[2] = compound: CC1=C(C=C(C=C1)NC(=O)C2=CC(=CC=C2)N(C)C)NC(=O)C3=CC=C(C=C3)O
In short: as §1

[3] = compound: CC1=CC=C(C=C1)SC2=C3C=C(SC3=CN=C2)C(=O)N
In short: as §1

[4] = compound: CC1=NC(=CC=C1)C2=C(N=C(N2)C(C)(C)C)C3=CC4=NC=CN=C4C=C3
In short: as §1

[5] = compound: CCCCN(Cc1ccc(C(=O)NO)cc1)C(=O)Nc1ccccc1 [Nexturastat A]
In short: as §1

[6] = compound: CCCS(=O)(=O)Nc1ccc(F)c(C(=O)c2c[nH]c3ncc(-c4ccc(Cl)cc4)cc23)c1F [vemurafenib]
In short: as §1

[7] = compound: CCCS(=O)(=O)Nc1ccc(F)c(C(=O)c2c[nH]c3ncc(Cl)cc23)c1F
In short: as §1

[8] = compound: CCCc1cc(C)[nH]c(=O)c1CNC(=O)c1cc(-c2ccnc(N3CCN(C)CC3)c2)cc2c1cnn2C(C)C
In short: as §1

[9] = compound: CCN(CC)Cc1ccc2cc(COC(=O)Nc3ccc(C(=O)NO)cc3)ccc2c1 [givinostat]
In short: as §1

[10] = compound: CCN(CCCOc1ccc2c(Nc3cc(CC(=O)Nc4cccc(F)c4)[nH]n3)ncnc2c1)CCOP(=O)(O)O [barasertib]
In short: as §1

[11] = compound: CC[C@@H]1C(=O)N(C)c2cnc(Nc3ccc(C(=O)NC4CCN(C)CC4)cc3OC)nc2N1C1CCCC1
In short: as §1

[12] = compound: CC[C@@H]1C(=O)N(C)c2cnc(Nc3ccc(C(=O)N[C@H]4CC[C@H](N5CCN(CC6CC6)CC5)CC4)cc3OC)nc2N1C(C)C [volasertib]
In short: as §1

[13] = compound: CC[C@H](C)N1C=C(C2=C(C=C(C=C21)C3=CN=C(C=C3)N4CCNCC4)C(=O)NCC5=C(C=C(NC5=O)C)C)C
In short: as §1

[14] = compound: CC[C@H](C)[C@@H](C(=O)N[C@@H]([C@@H](C)O)C(=O)N[C@@H](CC(C)C)C(=O)[C@]1(CO1)C)NC(=O)[C@H]([C@@H](C)CC)N(C)C(=O)C [epoxomicin]
In short: as §1

[15] = compound: CCn1c(C(=O)N(C2CC2)C2CC2)cc2c3c(ncn3C)c(Nc3cc(C)n(C)n3)nc21
In short: as §1

[16] = compound: CCn1cc(-c2ccnc3[nH]c(-c4cccc(CN(C)C)c4)cc23)c(-c2ccc(NC(=O)N(C)C)cc2)n1
In short: as §1

[17] = compound: CN(C)CC(=O)Nc1ccc2[nH]c(=O)c3ccccc3c2c1
In short: as §1

[18] = compound: CN(CCOC1=CC=C(C=C1)C[C@H]2C(=O)NC(=O)S2)C3=CC=CC=N3 (racemic) [rosiglitazone]
In short: as §1

[19] = compound: CN1C2=C(C3=C1C(=O)N(N=C3)CC4=CC(=CC=C4)N)SC(=C2)S(=O)C
In short: as §1

[20] = compound: CN1CCC(CNc2ccc3ncc(-c4cccc(OC(F)(F)F)c4)n3n2)CC1
In short: as §1

Measured: log2 fold change

NDUFS6 (UniProt O75380)
inactive: [1] 0.002 | [2] 0.021 | [3] -0.039 | [4] -0.109 | [5] -0.033 | [6] -0.054 | [7] -0.038 | [8] -0.049 | [9] -0.152 | [10] -0.09 | [11] 0.09 | [12] 0.182 | [13] -0.105 | [14] -0.035 | [15] 0.101 | [16] 0.043 | [17] -0.046 | [18] -0.048 | [19] 0.067 | [20] -0.034

NCBP1 (UniProt Q09161)
inactive: [1] 0.019 | [2] 0.021 | [3] 0.002 | [4] 0.029 | [5] -0.049 | [6] 0.014 | [7] 0.04 | [8] -0.017 | [9] -0.017 | [10] 0.022 | [11] -0.006 | [12] -0.127 | [13] 0.012 | [14] 0.014 | [15] 0.001 | [16] -0.018 | [17] 0.045 | [18] 0.038 | [19] -0.015 | [20] -0.001

MZT2A (UniProt Q6P582)
inactive: [1] -0.073 | [2] -0.012 | [3] 0.021 | [4] 0.001 | [5] 0.094 | [6] 0.156 | [7] -0.03 | [8] -0.045 | [9] -0.013 | [10] -0.038 | [11] 0.026 | [12] 0.098 | [13] 0.053 | [14] 0.167 | [15] 0.053 | [16] 0.184 | [17] -0.072 | [18] -0.058 | [19] 0.051 | [20] -0.097

NAXE (UniProt Q8NCW5)
inactive: [1] 0.01 | [2] -0.015 | [3] 0.049 | [4] 0.003 | [5] -0.024 | [6] 0.009 | [7] -0.025 | [8] -0.025 | [9] -0.04 | [10] 0.007 | [11] -0.005 | [12] 0.048 | [13] -0.007 | [14] -0.02 | [15] -0.013 | [16] -0.035 | [17] -0.036 | [18] 0 | [19] -0.032 | [20] 0.006

NADK2 (UniProt Q4G0N4)
inactive: [1] -0.026 | [2] 0.027 | [3] -0.01 | [4] -0.015 | [5] -0.016 | [6] -0.007 | [7] 0 | [8] 0.019 | [9] -0.022 | [10] -0.004 | [11] 0.021 | [12] 0.034 | [13] 0.01 | [14] 0.032 | [15] -0.014 | [16] -0.022 | [17] 0.019 | [18] -0.011 | [19] -0.071 | [20] -0.003

NDUFV2 (UniProt P19404)
inactive: [1] 0.026 | [2] 0.016 | [3] -0.013 | [4] -0.025 | [5] 0.037 | [6] 0.001 | [7] -0.043 | [8] 0.001 | [9] -0.068 | [10] -0.016 | [11] -0.019 | [12] 0.002 | [13] -0.013 | [14] 0 | [15] 0.002 | [16] -0.022 | [17] -0.026 | [18] 0.001 | [19] 0.015 | [20] -0.072

NDUFS1 isoform 2 (UniProt P28331)
inactive: [1] -0.013 | [2] -0.043 | [3] 0.001 | [4] 0.027 | [5] -0.046 | [6] 0.013 | [7] 0.036 | [8] 0 | [9] -0.034 | [10] 0.014 | [11] -0.029 | [12] -0.154 | [13] 0.068 | [14] 0.065 | [15] -0.019 | [16] -0.123 | [17] 0.053 | [18] 0.054 | [19] -0.056 | [20] -0.19

NDUFS3 (UniProt O75489)
inactive: [1] 0.017 | [2] 0.022 | [3] -0.003 | [4] 0.005 | [5] -0.051 | [6] 0.02 | [7] 0.009 | [8] 0.033 | [9] -0.014 | [10] -0.005 | [11] -0.02 | [12] -0.001 | [13] -0.01 | [14] 0.066 | [15] -0.005 | [16] -0.03 | [17] 0.016 | [18] 0.01 | [19] -0.08 | [20] -0.102

NDUFV3 isoform 2 (UniProt P56181)
inactive: [1] -0.054 | [2] 0.012 | [3] -0.037 | [4] -0.06 | [5] -0.024 | [6] -0.039 | [7] -0.051 | [8] -0.014 | [9] -0.025 | [10] -0.048 | [11] 0.035 | [12] 0.151 | [13] -0.062 | [14] -0.013 | [15] 0.044 | [16] 0.017 | [17] -0.046 | [18] 0 | [19] -0.018 | [20] 0.043

NDUFB9 (UniProt Q9Y6M9)
inactive: [1] -0.021 | [2] 0.003 | [3] 0.015 | [4] 0 | [5] -0.05 | [6] -0.011 | [7] 0.029 | [8] -0.102 | [9] -0.149 | [10] -0.013 | [11] -0.021 | [12] -0.012 | [13] -0.007 | [14] -0.008 | [15] -0.024 | [16] -0.008 | [17] 0.033 | [18] -0.003 | [19] -0.081 | [20] -0.02

NECAP1 (UniProt Q8NC96)
inactive: [1] -0.008 | [2] -0.04 | [3] -0.018 | [4] 0.021 | [5] -0.031 | [6] 0.033 | [7] 0.013 | [8] 0.06 | [9] -0.02 | [10] -0.033 | [11] 0.02 | [12] -0.072 | [13] 0.058 | [14] 0.059 | [15] 0.009 | [16] -0.037 | [17] -0.022 | [18] 0.044 | [19] -0.015 | [20] -0.099

NAPA (UniProt P54920)
inactive: [1] 0.062 | [2] -0.002 | [3] 0.006 | [4] 0.02 | [5] -0.085 | [6] 0.063 | [7] 0.019 | [8] -0.043 | [9] -0.016 | [10] 0.002 | [11] -0.057 | [12] -0.129 | [13] 0.013 | [14] 0.053 | [15] -0.014 | [16] -0.061 | [17] 0.016 | [18] -0.001 | [19] -0.067 | [20] 0.007

NAA20 (UniProt P61599)
inactive: [1] 0.07 | [2] -0.031 | [3] 0.005 | [4] 0.006 | [5] -0.096 | [6] 0.117 | [7] 0.008 | [8] 0.012 | [9] -0.011 | [10] -0.002 | [11] -0.014 | [12] -0.049 | [13] 0.013 | [14] -0.025 | [15] 0 | [16] -0.058 | [17] -0.002 | [18] 0.106 | [19] -0.038 | [20] 0.063

NEDD1 isoform 3 (UniProt Q8NHV4)
inactive: [1] 0.013 | [2] -0.051 | [3] -0.074 | [4] -0.045 | [5] 0.025 | [6] -0.022 | [7] -0.09 | [8] -0.003 | [9] 0 | [10] 0.024 | [11] 0.045 | [12] 0.085 | [13] -0.012 | [14] -0.019 | [15] -0.096 | [16] -0.001 | [17] -0.015 | [18] 0.053 | [19] 0.011 | [20] -0.013

NARF (UniProt Q9UHQ1)
inactive: [1] -0.058 | [2] -0.029 | [3] -0.018 | [4] 0.004 | [5] 0.01 | [6] 0.002 | [7] 0.006 | [8] 0.027 | [9] -0.012 | [10] 0.042 | [11] -0.081 | [12] -0.17 | [13] 0.047 | [14] 0.11 | [15] -0.007 | [16] 0.012 | [17] -0.004 | [18] 0.026 | [19] -0.023 | [20] -0.009

Reprinted at random: 2 entries already listed, in no set order.
NADK2 (UniProt Q4G0N4)
inactive: [1] -0.026 | [2] 0.027 | [3] -0.01 | [4] -0.015 | [5] -0.016 | [6] -0.007 | [7] 0 | [8] 0.019 | [9] -0.022 | [10] -0.004 | [11] 0.021 | [12] 0.034 | [13] 0.01 | [14] 0.032 | [15] -0.014 | [16] -0.022 | [17] 0.019 | [18] -0.011 | [19] -0.071 | [20] -0.003

NAXE (UniProt Q8NCW5)
inactive: [1] 0.01 | [2] -0.015 | [3] 0.049 | [4] 0.003 | [5] -0.024 | [6] 0.009 | [7] -0.025 | [8] -0.025 | [9] -0.04 | [10] 0.007 | [11] -0.005 | [12] 0.048 | [13] -0.007 | [14] -0.02 | [15] -0.013 | [16] -0.035 | [17] -0.036 | [18] 0 | [19] -0.032 | [20] 0.006

(cont.)

NCLN (UniProt Q969V3)
inactive: [1] 0.011 | [2] -0.011 | [3] -0.042 | [4] -0.015 | [5] -0.004 | [6] -0.027 | [7] 0.005 | [8] 0.023 | [9] 0.016 | [10] 0.018 | [11] -0.007 | [12] -0.059 | [13] -0.003 | [14] -0.004 | [15] 0.032 | [16] 0.042 | [17] -0.003 | [18] 0.001 | [19] 0.035 | [20] 0.03
